Experimental data published in doi:10.1101/2022.05.27.493676.
No constants are given. Whether binding was seen depends on the method and setting. Some results given as binding are weak or reduced against the parent protein; the word gives no strength.

Chains of the proteins cited; added tags and fusions are not shown.
UniProt Q8TEK3: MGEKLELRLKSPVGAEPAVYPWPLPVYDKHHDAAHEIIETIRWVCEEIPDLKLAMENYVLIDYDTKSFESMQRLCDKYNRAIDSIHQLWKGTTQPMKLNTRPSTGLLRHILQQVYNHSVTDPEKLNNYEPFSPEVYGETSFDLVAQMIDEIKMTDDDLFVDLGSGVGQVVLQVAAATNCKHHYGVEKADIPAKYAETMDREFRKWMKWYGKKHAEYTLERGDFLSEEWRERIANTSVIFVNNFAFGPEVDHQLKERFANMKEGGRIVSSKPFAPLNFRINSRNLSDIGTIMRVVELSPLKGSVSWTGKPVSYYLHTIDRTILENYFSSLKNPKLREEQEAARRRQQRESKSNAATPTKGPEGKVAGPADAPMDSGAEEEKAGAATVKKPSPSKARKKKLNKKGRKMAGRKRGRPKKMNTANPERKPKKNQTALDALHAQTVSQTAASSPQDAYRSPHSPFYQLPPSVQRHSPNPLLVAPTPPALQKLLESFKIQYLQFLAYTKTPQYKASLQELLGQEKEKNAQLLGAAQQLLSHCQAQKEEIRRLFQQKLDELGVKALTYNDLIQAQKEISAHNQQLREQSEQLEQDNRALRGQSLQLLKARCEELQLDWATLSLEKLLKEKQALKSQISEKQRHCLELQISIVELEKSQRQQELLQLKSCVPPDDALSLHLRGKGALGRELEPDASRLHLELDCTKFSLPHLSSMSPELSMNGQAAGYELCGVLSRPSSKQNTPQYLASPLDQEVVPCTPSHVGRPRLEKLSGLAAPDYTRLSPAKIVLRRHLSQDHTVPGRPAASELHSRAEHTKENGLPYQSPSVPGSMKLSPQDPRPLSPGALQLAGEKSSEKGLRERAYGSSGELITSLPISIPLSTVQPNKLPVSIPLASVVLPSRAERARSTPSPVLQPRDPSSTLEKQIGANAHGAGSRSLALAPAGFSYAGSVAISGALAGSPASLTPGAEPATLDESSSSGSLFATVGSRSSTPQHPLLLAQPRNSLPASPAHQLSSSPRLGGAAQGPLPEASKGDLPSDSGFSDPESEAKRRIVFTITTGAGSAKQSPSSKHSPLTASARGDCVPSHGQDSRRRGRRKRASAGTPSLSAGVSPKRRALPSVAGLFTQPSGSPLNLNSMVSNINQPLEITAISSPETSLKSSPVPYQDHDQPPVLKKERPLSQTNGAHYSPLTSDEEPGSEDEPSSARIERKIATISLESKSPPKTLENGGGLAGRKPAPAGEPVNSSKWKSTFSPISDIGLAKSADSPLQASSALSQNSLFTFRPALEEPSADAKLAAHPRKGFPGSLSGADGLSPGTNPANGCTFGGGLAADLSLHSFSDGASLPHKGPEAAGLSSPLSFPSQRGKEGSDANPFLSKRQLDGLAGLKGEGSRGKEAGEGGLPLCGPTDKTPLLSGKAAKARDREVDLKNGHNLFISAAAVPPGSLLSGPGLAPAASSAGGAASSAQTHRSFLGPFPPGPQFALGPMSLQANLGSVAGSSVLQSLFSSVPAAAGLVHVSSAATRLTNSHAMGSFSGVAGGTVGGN

Target: TetR fused to DOT1L (UniProt Q8TEK3)
Test: TetR recruitment to a TetO array, read by ChIP-qPCR

binding: binds
B1: ENL, endogenous in mESCs (protein, UniProt Q9ERL0 1-547)
chain: MDNQCTVQVKLELGHRAQLRKKPTTEGFTHDWMVFVRGPEQCDIQHFVEKVIFRLHDSFPKPKRVCKEPPYKVEESGYAGFIMLIEVYFKNKEEPRKVCFTYDLFLNLEGNPPVNHLRCEKLTFNNPTTEFRCKLLMAGGVMVMPEGADTVSRPSPDYPMLPTIPLSAFSDPKKNKPSHGSKDANKESGKASKPHKVAREHRERPRKDSESRSCSKEPEREPKSAKDAARKLPKEEKAPVPKAAFKEPKMALKETKLESLSPKGVPQPPTLPKASSKRPAATDSPKLSAKKPKKSGSKGTRRAPGTSPRASSFPDKKVARDKNSKGDKGKAESEPREAKRTLQTEDSNSEDEASFRSESAQSSPANASSSSDSSSDSDFEPSQNHSQGPLRSMVEDLQSEGSDEDDSSSGEENTGKANPGRESRLSFSDSESDNSADSCLPGREPLPPQKPPPPSSKVSGRRSPEPCSKPEKMLKKATYDKAYTDELVELHRRLMALRERNVLQQIVNLIEETGHFNVTNTTFDFDLFSLDESTVRKLQSCLEAVAT
